The values that follow come from the supplement of paper PMC12819154, “High-throughput peptide-centric local stability assay extends protein–ligand identification to membrane proteins, tissues and bacteria” (Nature Structural & Molecular Biology, 2025).

Amino acid sequences for entries named in this document (tags omitted). A change or cut given only in a name is not applied to a line headed by its entry.
UniProt Q7Z3C6: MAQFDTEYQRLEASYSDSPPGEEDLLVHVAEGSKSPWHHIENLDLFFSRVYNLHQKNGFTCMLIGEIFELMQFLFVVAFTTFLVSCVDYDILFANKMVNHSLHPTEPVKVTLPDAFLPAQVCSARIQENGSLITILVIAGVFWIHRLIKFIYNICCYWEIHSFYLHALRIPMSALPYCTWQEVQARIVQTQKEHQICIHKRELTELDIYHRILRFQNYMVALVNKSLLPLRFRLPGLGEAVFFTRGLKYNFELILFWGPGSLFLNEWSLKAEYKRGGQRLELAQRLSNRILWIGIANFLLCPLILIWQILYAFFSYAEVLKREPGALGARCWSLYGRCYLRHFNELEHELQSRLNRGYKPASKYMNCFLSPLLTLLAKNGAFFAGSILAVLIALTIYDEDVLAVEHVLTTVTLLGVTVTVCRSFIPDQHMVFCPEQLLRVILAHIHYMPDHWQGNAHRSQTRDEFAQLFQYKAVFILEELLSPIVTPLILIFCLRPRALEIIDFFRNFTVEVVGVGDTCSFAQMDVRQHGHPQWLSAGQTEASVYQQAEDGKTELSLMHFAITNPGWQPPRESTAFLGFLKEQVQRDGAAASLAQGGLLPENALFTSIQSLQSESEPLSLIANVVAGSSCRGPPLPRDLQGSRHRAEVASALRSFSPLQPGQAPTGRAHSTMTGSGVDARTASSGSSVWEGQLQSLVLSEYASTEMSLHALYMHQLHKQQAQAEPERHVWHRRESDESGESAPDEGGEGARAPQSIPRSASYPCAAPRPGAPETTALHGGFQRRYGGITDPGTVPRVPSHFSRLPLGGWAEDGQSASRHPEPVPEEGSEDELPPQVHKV
UniProt Q86VP3, whole entry: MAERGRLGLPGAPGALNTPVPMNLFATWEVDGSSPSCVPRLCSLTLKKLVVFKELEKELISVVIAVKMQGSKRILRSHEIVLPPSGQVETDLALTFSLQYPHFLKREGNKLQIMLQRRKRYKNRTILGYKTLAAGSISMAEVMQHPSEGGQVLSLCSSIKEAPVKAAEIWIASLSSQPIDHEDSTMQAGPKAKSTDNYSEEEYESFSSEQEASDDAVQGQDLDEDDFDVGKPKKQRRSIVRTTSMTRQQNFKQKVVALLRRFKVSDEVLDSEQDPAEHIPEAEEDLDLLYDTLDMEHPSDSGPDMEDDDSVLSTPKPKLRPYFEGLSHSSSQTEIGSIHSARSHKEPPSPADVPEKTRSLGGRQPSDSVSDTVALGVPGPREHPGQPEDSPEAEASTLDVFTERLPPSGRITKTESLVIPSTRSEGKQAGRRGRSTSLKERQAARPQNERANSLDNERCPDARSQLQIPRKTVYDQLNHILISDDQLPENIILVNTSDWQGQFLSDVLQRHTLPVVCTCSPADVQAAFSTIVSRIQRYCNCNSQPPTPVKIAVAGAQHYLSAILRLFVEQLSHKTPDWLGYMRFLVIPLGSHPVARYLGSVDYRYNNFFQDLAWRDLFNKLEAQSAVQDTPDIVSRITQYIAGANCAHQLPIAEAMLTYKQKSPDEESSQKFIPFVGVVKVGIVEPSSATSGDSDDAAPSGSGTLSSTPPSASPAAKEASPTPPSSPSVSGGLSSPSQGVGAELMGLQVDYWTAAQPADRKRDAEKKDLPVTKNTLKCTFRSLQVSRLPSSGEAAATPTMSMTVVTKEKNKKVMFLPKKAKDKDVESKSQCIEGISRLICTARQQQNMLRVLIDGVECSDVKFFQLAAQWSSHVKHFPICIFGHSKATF
UniProt Q7RTV0, whole entry, looked up: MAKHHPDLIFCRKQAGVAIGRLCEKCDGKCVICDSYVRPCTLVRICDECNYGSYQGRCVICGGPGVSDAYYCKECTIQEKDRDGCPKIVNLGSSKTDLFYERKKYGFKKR
UniProt Q86UD0: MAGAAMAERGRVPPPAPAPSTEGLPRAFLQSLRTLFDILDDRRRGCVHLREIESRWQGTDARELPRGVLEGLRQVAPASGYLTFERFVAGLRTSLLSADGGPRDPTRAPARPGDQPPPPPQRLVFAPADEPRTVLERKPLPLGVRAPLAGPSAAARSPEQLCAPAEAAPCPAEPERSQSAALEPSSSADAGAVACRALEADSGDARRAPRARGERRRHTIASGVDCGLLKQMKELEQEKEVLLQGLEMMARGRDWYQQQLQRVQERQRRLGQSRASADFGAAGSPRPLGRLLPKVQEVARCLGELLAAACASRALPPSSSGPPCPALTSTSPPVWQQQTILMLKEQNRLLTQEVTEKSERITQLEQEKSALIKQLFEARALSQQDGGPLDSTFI
UniProt Q7Z2W4: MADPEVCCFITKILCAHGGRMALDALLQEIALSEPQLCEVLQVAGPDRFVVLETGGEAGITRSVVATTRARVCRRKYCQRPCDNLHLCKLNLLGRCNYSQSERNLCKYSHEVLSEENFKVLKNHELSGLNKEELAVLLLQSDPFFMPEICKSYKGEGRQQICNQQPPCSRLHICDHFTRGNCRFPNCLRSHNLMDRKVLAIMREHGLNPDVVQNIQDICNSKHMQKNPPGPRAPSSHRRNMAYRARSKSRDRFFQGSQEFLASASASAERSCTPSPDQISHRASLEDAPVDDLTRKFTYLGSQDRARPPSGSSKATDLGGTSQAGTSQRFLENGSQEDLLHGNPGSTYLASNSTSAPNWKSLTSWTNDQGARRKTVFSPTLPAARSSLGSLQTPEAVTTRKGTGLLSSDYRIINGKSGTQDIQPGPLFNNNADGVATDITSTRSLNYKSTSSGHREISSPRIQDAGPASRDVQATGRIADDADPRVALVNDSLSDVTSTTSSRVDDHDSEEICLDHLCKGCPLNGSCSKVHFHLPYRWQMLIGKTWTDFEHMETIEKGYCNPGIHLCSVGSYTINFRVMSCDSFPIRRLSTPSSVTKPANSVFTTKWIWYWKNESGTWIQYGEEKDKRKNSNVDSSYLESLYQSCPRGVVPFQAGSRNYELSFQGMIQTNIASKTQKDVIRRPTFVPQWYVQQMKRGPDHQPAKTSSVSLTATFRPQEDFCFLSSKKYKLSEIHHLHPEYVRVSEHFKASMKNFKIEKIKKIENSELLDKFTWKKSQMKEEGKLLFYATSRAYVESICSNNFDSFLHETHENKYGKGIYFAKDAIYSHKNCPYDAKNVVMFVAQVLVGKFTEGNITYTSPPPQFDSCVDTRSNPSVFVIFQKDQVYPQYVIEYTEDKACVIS
UniProt Q7Z739: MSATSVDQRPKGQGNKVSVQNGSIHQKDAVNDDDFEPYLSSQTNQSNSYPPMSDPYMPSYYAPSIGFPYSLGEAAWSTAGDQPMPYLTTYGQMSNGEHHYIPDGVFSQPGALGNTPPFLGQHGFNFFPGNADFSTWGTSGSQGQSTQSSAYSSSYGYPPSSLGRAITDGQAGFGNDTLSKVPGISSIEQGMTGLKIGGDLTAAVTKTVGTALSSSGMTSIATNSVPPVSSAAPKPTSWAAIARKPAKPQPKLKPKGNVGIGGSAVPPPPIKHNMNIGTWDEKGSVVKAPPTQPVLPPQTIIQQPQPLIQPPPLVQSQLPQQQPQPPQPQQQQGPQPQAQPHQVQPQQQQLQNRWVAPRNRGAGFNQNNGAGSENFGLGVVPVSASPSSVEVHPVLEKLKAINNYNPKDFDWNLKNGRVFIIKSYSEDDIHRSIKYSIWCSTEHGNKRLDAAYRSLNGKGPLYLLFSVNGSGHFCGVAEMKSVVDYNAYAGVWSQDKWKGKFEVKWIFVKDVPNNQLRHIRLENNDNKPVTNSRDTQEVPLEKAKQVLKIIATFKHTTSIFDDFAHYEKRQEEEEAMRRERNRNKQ
UniProt Q7Z406, whole entry: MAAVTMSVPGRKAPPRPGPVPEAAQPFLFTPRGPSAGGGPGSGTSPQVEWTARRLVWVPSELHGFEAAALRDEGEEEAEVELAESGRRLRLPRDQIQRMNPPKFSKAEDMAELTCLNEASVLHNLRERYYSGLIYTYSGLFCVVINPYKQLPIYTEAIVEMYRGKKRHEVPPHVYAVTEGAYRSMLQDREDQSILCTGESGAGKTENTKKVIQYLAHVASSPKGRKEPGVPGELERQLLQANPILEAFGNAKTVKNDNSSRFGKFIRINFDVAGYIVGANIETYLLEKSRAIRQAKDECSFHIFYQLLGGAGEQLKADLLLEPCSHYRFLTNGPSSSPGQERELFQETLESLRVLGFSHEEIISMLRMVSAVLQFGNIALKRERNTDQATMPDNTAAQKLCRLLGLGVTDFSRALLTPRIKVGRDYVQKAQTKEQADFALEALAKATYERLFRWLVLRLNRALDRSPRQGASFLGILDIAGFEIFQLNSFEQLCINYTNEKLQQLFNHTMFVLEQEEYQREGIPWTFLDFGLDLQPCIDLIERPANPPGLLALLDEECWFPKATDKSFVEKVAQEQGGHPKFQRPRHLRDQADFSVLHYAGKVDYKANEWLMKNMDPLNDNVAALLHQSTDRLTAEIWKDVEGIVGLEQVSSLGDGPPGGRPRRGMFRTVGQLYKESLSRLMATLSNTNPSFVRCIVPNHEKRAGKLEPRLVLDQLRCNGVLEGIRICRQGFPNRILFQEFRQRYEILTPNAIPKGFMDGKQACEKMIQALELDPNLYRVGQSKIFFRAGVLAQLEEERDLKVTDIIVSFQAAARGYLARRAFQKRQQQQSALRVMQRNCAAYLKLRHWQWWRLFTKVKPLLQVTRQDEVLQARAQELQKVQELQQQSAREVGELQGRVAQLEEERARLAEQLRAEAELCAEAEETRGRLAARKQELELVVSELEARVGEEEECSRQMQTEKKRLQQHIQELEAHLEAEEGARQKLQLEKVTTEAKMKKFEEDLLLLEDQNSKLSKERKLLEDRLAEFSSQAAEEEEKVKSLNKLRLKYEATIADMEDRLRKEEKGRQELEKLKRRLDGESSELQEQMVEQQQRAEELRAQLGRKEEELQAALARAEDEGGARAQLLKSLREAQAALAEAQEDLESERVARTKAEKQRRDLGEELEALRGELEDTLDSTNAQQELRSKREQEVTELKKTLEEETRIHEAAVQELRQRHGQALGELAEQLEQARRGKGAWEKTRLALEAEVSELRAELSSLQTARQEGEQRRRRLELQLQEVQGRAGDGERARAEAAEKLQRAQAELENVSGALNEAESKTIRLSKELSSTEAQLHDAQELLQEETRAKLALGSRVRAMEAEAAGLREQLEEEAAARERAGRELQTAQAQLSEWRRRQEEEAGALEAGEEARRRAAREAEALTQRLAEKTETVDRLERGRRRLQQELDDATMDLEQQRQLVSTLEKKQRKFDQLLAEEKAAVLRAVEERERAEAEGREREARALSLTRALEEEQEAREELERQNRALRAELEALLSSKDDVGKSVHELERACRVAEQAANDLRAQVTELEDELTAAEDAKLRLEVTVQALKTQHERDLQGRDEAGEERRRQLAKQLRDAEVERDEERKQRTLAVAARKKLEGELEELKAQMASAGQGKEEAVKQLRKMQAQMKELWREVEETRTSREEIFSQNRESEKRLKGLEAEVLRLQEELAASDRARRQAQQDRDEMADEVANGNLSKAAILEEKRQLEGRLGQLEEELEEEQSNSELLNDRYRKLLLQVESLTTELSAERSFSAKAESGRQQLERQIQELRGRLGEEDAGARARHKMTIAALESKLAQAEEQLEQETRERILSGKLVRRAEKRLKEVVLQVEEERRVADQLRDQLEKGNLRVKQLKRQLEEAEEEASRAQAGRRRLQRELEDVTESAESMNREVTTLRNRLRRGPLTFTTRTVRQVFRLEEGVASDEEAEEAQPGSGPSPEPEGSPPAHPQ
UniProt Q86VP1, whole entry: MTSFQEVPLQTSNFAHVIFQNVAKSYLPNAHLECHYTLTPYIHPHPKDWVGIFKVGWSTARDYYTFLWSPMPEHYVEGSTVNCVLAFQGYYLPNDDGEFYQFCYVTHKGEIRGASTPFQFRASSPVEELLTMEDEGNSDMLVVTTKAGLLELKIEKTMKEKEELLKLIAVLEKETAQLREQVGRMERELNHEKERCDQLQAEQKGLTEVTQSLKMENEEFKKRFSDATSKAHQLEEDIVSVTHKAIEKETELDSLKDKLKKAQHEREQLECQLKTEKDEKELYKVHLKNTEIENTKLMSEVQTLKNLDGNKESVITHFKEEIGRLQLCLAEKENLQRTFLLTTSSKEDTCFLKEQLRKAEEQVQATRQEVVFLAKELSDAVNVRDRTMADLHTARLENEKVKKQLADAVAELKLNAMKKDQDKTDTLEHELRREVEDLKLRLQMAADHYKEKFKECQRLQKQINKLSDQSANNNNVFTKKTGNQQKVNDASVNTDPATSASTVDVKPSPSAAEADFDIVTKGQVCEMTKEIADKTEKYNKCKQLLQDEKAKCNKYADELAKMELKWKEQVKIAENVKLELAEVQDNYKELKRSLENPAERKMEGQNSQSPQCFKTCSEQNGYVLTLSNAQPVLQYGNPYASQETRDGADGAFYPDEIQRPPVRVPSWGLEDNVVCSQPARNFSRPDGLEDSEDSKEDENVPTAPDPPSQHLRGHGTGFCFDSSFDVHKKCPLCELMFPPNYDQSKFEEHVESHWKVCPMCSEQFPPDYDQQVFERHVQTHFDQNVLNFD

This is one part of the list. Most entries show no effect beyond the scatter of the controls.

Compound in the assay: CN[C@@H]1C[C@H]2O[C@@](C)([C@@H]1OC)n1c3ccccc3c3c4c(c5c6ccccc6n2c5c31)C(=O)NC4 [staurosporine]
Briefly: log2 fold change of tryptic peptide abundance, ligand vs vehicle (limited proteolysis) (log2 ratio); higher = more trypsin-susceptible (destabilized). To be noted: ligand concentration: 20 uM; sample: K562 cleared lysate; digestion: 4 min, 22 C (HT-PELSA RT4min, Orbitrap Astral).
“UniProt Q7Z4I7 (peptide sequence: HLCRPCHNR, peptide start residue: 116)”: the log2 fold change is 0.842. Consider “ATG9A (peptide sequence: PGAPETTALHGGFQR, peptide start residue: 769) (UniProt Q7Z3C6)”, for which the log2 fold change is 0.197. For “PACS2 (peptide sequence: IAVAGAQHYLSAILR, peptide start residue: 551) (UniProt Q86VP3)”, the log2 fold change is -0.234. For the target “KIF21A (peptide sequence: QVRPMSDKVAGK, peptide start residue: 836) (UniProt Q7Z4S6)”, the log2 fold change stood at 0.508.

Take “UniProt Q7RTV0 (peptide sequence: TDLFYER, peptide start residue: 96)”: the log2 fold change was -0.0749. For “UniProt Q86UD0 (peptide sequence: HTIASGVDCGLLK, peptide start residue: 218)”, the log2 fold change is -0.436.

As for “ZC3HAV1 (peptide sequence: IADDADPR, peptide start residue: 478) (UniProt Q7Z2W4)”, the log2 fold change was -0.148. For “YTHDF3 (peptide sequence: IGGDLTAAVTK, peptide start residue: 196) (UniProt Q7Z739)”, the log2 fold change is -0.239. As to “UniProt Q7L2H7 (peptide sequence: WISDWNLTTEKK, peptide start residue: 150)”, the log2 fold change worked out at 0.414. The result for “MYH14 (peptide sequence: QLLQANPILEAFGNAK, peptide start residue: 210) (UniProt Q7Z406)” reads 0.414. For “TAX1BP1 (peptide sequence: KQLADAVAELK, peptide start residue: 403) (UniProt Q86VP1)” the value was 0.381.
